# Experimental data: the supplement of paper PMC8728848
# This is one part of the list.
# B1: Epa8 (Candida glabrata) (protein)
# chain: MGSSHHHHHHSSGLVPRGSHMASSRALSDYPLGCSPLLGTKLTPGLSMELYEYPLDNHGIGPHCWDPAYLNPEYPRTGFESHKLIGTAQNVMSLNFEHRTQDCHVEFSNLPASFNFPDQITLTNFTMLLYGYFKPKESGRYRFHMEADDLLLMNLGAGNAFDCCAHEATRNNLGDYIAYDIWAGTRKDVEVFLEKEVFYPLRLFFNNRDGRAALDFSYYLNGATEPGTDIPELLFSLPDGESCPAYI
# Assays:
# Test in all cases: glycan array binding signal (z-score within array); higher = stronger binding
# Conditions in all cases: glycan notation: IUPAC condensed, linker removed
# [1] = molecular target: Fuc(a1-3)[Gal(b1-4)]GlcNAc(b1-3)Gal(b1-3)[Fuc(a1-4)]GlcNAc
# How it was run: (§1)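 Glycan array data were curated from 3228 arrays in the Consortium for Functional Glycomics database and kept only where the protein sequence was available. Glycan names were converted to IUPAC-condensed notation, and columns mapping to the same glycan were averaged. The binding signal is a within-array Z-score, averaged across arrays of the same protein sequence at different concentrations or buffers and across linkers. Negative Z-scores can be read as non-binding.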
# [2] = molecular target: Fuc(a1-3)[Gal(b1-4)]GlcNAc(b1-3)Gal(b1-4)[Fuc(a1-3)]GlcNAc
# How it was run: as §1
# [3] = molecular target: Fuc(a1-3)[Gal(b1-4)]GlcNAc(b1-3)Gal(b1-4)[Fuc(a1-3)]GlcNAc(b1-3)Gal(b1-4)[Fuc(a1-3)]GlcNAc
# How it was run: as §1
# [4] = molecular target: Fuc(a1-3)[Gal(b1-4)]GlcNAc(b1-3)GalNAc
# How it was run: as §1
# [5] = molecular target: Fuc(a1-3)[Gal(b1-4)]GlcNAc(b1-6)GalNAc
# How it was run: as §1
# [6] = molecular target: Fuc(a1-3)[Gal(b1-4)]GlcNAc(b1-6)[Gal(b1-3)GlcNAc(b1-3)]Gal(b1-4)Glc
# How it was run: as §1
# [7] = molecular target: Fuc(a1-3)[Gal(b1-4)]GlcNAc6S
# How it was run: as §1
# [8] = molecular target: Fuc(a1-3)[Gal3S(b1-4)]Glc
# How it was run: as §1
# [9] = molecular target: Fuc(a1-3)[Gal3S(b1-4)]GlcNAc
# How it was run: as §1
# [10] = molecular target: Fuc(a1-3)[Gal3S(b1-4)]GlcNAc6S
# How it was run: as §1
# [11] = molecular target: Fuc(a1-3)[GalNAc(b1-4)]GlcNAc
# How it was run: as §1
# [12] = molecular target: Fuc(a1-3)[GalNAc(b1-4)]GlcNAc6S
# How it was run: as §1
# [13] = molecular target: Fuc(a1-4)GlcNAc
# How it was run: as §1
# [14] = molecular target: Fuc(b1-3)GlcNAc
# How it was run: as §1
# [15] = molecular target: Gal(a1-2)Gal
# How it was run: as §1
# [16] = molecular target: Gal(a1-3)Gal
# How it was run: as §1
# [17] = molecular target: Gal(a1-3)Gal(b1-3)GlcNAc
# How it was run: as §1
# [18] = molecular target: Gal(a1-3)Gal(b1-3)GlcNAc(b1-2)Man
# How it was run: as §1
# [19] = molecular target: Gal(a1-3)Gal(b1-3)GlcNAc(b1-2)Man(a1-3)[Gal(a1-3)Gal(b1-3)GlcNAc(b1-2)Man(a1-6)]Man(b1-4)GlcNAc(b1-4)GlcNAc
# How it was run: as §1
# [20] = molecular target: Gal(a1-3)Gal(b1-3)GlcNAc(b1-3)GalNAc
# How it was run: as §1
# [21] = molecular target: Gal(a1-3)Gal(b1-3)GlcNAc(b1-6)GalNAc
# How it was run: as §1
# [22] = molecular target: Gal(a1-3)Gal(b1-3)[Fuc(a1-4)]GlcNAc(b1-2)Man(a1-3)[Gal(a1-3)Gal(b1-3)[Fuc(a1-4)]GlcNAc(b1-2)Man(a1-6)]Man(b1-4)GlcNAc(b1-4)GlcNAc
# How it was run: as §1
# [23] = molecular target: Gal(a1-3)Gal(b1-4)Glc
# How it was run: as §1
# [24] = molecular target: Gal(a1-3)Gal(b1-4)GlcNAc
# How it was run: as §1
# [25] = molecular target: Gal(a1-3)Gal(b1-4)GlcNAc(b1-2)Man
# How it was run: as §1
# [26] = molecular target: Gal(a1-3)Gal(b1-4)GlcNAc(b1-2)Man(a1-3)[Gal(a1-3)Gal(b1-4)GlcNAc(b1-2)Man(a1-6)]Man(b1-4)GlcNAc(b1-4)GlcNAc
# How it was run: as §1
# [27] = molecular target: Gal(a1-3)Gal(b1-4)GlcNAc(b1-3)GalNAc
# How it was run: as §1
# [28] = molecular target: Gal(a1-3)Gal(b1-4)GlcNAc(b1-6)GalNAc
# How it was run: as §1
# [29] = molecular target: Gal(a1-3)Gal(b1-4)[Fuc(a1-3)]GlcNAc
# How it was run: as §1
# [30] = molecular target: Gal(a1-3)Gal(b1-4)[Fuc(a1-3)]GlcNAc(b1-2)Man(a1-3)[Gal(a1-3)Gal(b1-4)[Fuc(a1-3)]GlcNAc(b1-2)Man(a1-6)]Man(b1-4)GlcNAc(b1-4)GlcNAc
# How it was run: as §1
# [31] = molecular target: Gal(a1-3)GalNAc
# How it was run: as §1
# [32] = molecular target: Gal(a1-3)[Gal(a1-4)]Gal(b1-4)GlcNAc
# How it was run: as §1
# [33] = molecular target: Gal(a1-4)Gal(b1-3)GlcNAc(b1-2)Man(a1-3)[Gal(a1-4)Gal(b1-3)GlcNAc(b1-2)Man(a1-6)]Man(b1-4)GlcNAc(b1-4)GlcNAc
# How it was run: as §1
# [34] = molecular target: Gal(a1-4)Gal(b1-4)Glc
# How it was run: as §1
# [35] = molecular target: Gal(a1-4)Gal(b1-4)GlcNAc
# How it was run: as §1
# [36] = molecular target: Gal(a1-4)Gal(b1-4)GlcNAc(b1-2)Man(a1-3)[Gal(a1-4)Gal(b1-4)GlcNAc(b1-2)Man(a1-6)]Man(b1-4)GlcNAc(b1-4)GlcNAc
# How it was run: as §1
# [37] = molecular target: Gal(a1-4)Gal(b1-4)GlcNAc(b1-3)Gal(b1-4)Glc
# How it was run: as §1
# [38] = molecular target: Gal(a1-4)GlcNAc
# How it was run: as §1
binder,measurement,setting,value
B1,glycan array binding signal (z-score),[1],-0.552
same,glycan array binding signal (z-score),[2],-0.126
same,glycan array binding signal (z-score),[3],-0.784
same,glycan array binding signal (z-score),[4],0.404
same,glycan array binding signal (z-score),[5],1.23
same,glycan array binding signal (z-score),[6],-0.688
same,glycan array binding signal (z-score),[7],0.492
same,glycan array binding signal (z-score),[8],-0.205
same,glycan array binding signal (z-score),[9],0.094
same,glycan array binding signal (z-score),[10],0.484
same,glycan array binding signal (z-score),[11],-0.278
same,glycan array binding signal (z-score),[12],-0.401
same,glycan array binding signal (z-score),[13],-0.22
same,glycan array binding signal (z-score),[14],-0.121
same,glycan array binding signal (z-score),[15],-0.54
same,glycan array binding signal (z-score),[16],1.5
same,glycan array binding signal (z-score),[17],0.403
same,glycan array binding signal (z-score),[18],0.558
same,glycan array binding signal (z-score),[19],1.03
same,glycan array binding signal (z-score),[20],-0.12
same,glycan array binding signal (z-score),[21],0.137
same,glycan array binding signal (z-score),[22],0.112
same,glycan array binding signal (z-score),[23],0.32
same,glycan array binding signal (z-score),[24],-0.245
same,glycan array binding signal (z-score),[25],-0.268
same,glycan array binding signal (z-score),[26],0.165
same,glycan array binding signal (z-score),[27],-0.155
same,glycan array binding signal (z-score),[28],1.02
same,glycan array binding signal (z-score),[29],-0.506
same,glycan array binding signal (z-score),[30],0.943
same,glycan array binding signal (z-score),[31],-0.604
same,glycan array binding signal (z-score),[32],-0.46
same,glycan array binding signal (z-score),[33],0.332
same,glycan array binding signal (z-score),[34],-0.101
same,glycan array binding signal (z-score),[35],0.119
same,glycan array binding signal (z-score),[36],-0.074
same,glycan array binding signal (z-score),[37],-0.64
same,glycan array binding signal (z-score),[38],1.15

# 8 consecutive entries already listed:
binder,measurement,setting,value
B1,glycan array binding signal (z-score),[23],0.32
same,glycan array binding signal (z-score),[24],-0.245
same,glycan array binding signal (z-score),[25],-0.268
same,glycan array binding signal (z-score),[26],0.165
same,glycan array binding signal (z-score),[27],-0.155
same,glycan array binding signal (z-score),[28],1.02
same,glycan array binding signal (z-score),[29],-0.506
same,glycan array binding signal (z-score),[30],0.943
